{
  "source": "PubChem BioAssay AID1508600",
  "about": "(Functional Genomics Laboratory (NCATS/FGL), 2020)",
  "note": "Out of some 53,000 sequences screened, about 3,700 (7%) were called active.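 How the source made its calls: active means gene knockdowns whose robust z-score for IL-1 alpha signal is at least 2 or at most -2, so actives lie on both sides; inactive means the rest.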 The list shows a part of the results.",
  "data": [
    {"test": "Components of the Cytosolic LPS Sensing Pathway: Gene Identification via Genome-wide siRNA Screen;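 further: robust z of the log signal after scaling to non-targeting control siRNA wells of the plate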", "conditions": "RAW264.7 macrophages, IL-1a HTRF, actives lie on both sides, screened at 100 nM (by protocol), cells primed 5 h with Pam3CSK4 first", "procedure,_shortened": "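Knockdown: 100 nM siRNA, 48h, RAW264.7. Stimulation: Pam3CSK4 5 h, then LipidA via TransIT-TKO 24 h. Output: supernatant IL-1a HTRF, negative-control-normalized, log robust z-score; viability by CellTiter-Glo.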", "values": [
      {"sequence": "GGCUGUAGACAAAGAAUAUTT against Ecel1", "z-score": "inactive: -0.515"},
      {"sequence": "GGAUACUUUGAGAACUACUTT against Sptssa", "z-score": "inactive: 0.542"},
      {"sequence": "GCCACCUUGUUUCUCGAACTT against Fam207a", "z-score": "inactive: 0.186"},
      {"sequence": "CCCUGAACCCUAACAUCACTT against Tcirg1", "z-score": "inactive: 0.593"},
      {"sequence": "GGGUAAAAAGCUAGGUUUGTT against Acyp1", "z-score": "inactive: 1.02"},
      {"sequence": "GGGAUUUUAGAAGCUAUGATT against A830018L16Rik", "z-score": "inactive: -0.529"},
      {"sequence": "GGAUAGACAGAGAAAAGAUTT against Pcdhgb1", "z-score": "inactive: 1.21"},
      {"sequence": "GGUGGACUGUGAAAUAAAATT against Tha1", "z-score": "inactive: -0.967"},
      {"sequence": "CCCUGUUACUGGAUGCAGUTT against Olfr624", "z-score": "inactive: -0.252"},
      {"sequence": "GGGAGAGAUACGGAAAGAGTT against Tmem231", "z-score": "inactive: 0.397"},
      {"sequence": "CCUCAUCAUAUUCUCCUGATT against Olfr869", "z-score": "inactive: -0.848"},
      {"sequence": "GCUCUUGGAGCAUUUGUAGTT against Rab32", "z-score": "inactive: -0.492"},
      {"sequence": "GGAGAUCGUGCAAUUCAUUTT against Rasl2-9", "z-score": "inactive: 0.399"},
      {"sequence": "GGCUGCUUAACCUUGAUAATT against Lrrd1", "z-score": "inactive: 0.529"},
      {"sequence": "GGGCUAUCUCAGGUGGAAUTT against Xpnpep3", "z-score": "inactive: 1.14"},
      {"sequence": "GGAAAUUGAAGAGAAAGUGTT against Tor1aip1", "z-score": "inactive: -0.534"},
      {"sequence": "GGAGCACAGGCUCAGAAAATT against Ltb", "z-score": "inactive: 0.486"},
      {"sequence": "GGCUCAGAUCUGGGACACUTT against Rab11b", "z-score": "inactive: 0.215"},
      {"sequence": "ACAAAUCACACGUGUUAGUTT against Adam20", "z-score": "inactive: -1.03"},
      {"sequence": "CCCACUUUGAGGAAAGCUATT against Itprip", "z-score": "active: -2.46"},
      {"sequence": "GGAGUUUCAGGUUUUACUUTT against Pp2d1", "z-score": "inactive: 1.35"},
      {"sequence": "GCAUAUGGAGAGAAUCCCATT against Atg4b", "z-score": "inactive: -1.27"},
      {"sequence": "GGUCCAAGUCCGUCUACUATT against Acbd3", "z-score": "inactive: 0.987"},
      {"sequence": "GGAAUUAGCUGAACAUUGUTT against Txndc8", "z-score": "inactive: 1.15"},
      {"sequence": "GGAACACUCCAGUUUGAAUTT against Thsd1", "z-score": "inactive: 1.09"},
      {"sequence": "GGCAUGACUUCCAUUUCCCTT against Zbtb22", "z-score": "inactive: 0.0182"},
      {"sequence": "GGUAUAUGUAACGUGUACUTT against Ercc4", "z-score": "inactive: -0.752"},
      {"sequence": "CCAAUGGGCGUAAUCACUUTT against Obox3", "z-score": "inactive: -1.84"},
      {"sequence": "GGUGGAAGUGUAAAUAUCATT against Ptprd", "z-score": "inactive: 0.759"},
      {"sequence": "CGAGAUAGAGUCUGGAAUUTT against 1700092C17Rik", "z-score": "active: 3.91"},
      {"sequence": "GGUGGAAAAGUGAAAAAGGTT against Ddx18", "z-score": "inactive: 0.158"},
      {"sequence": "GGAAGUUUCUGGAAACACATT against Mbd3", "z-score": "inactive: -0.487"},
      {"sequence": "UCUGGAGUCUUAUCAAGGATT against Smim5", "z-score": "inactive: -0.466"},
      {"sequence": "GGCAUACCCAAAAAUAGAATT against Eif1a", "z-score": "inactive: 0.139"},
      {"sequence": "GGACAGCAGUCAGGAGACATT against Rusf1", "z-score": "inactive: -0.294"},
      {"sequence": "GGAAGUUAAGCAUAGUUUCTT against Flrt3", "z-score": "inactive: 1.15"},
      {"sequence": "GGAUAUGGAGAAAAGGAAATT against Slc22a22", "z-score": "inactive: 1.2"},
      {"sequence": "GGAUUUCAUCAGUGUUCUUTT against Rrp15", "z-score": "inactive: 0.421"},
      {"sequence": "GGGUCUCCAAACCAUCAGUTT against Kir3dl1", "z-score": "inactive: -1"},
      {"sequence": "GGCUACAGCAGCAAUUACATT against Zc3h13", "z-score": "inactive: -1.42"},
      {"sequence": "GGAGCAAAUCCAGAGCAACTT against Actr8", "z-score": "inactive: 1"},
      {"sequence": "GGGCUCACCUCUCUCUUUGTT against Psd", "z-score": "inactive: -1.36"},
      {"sequence": "GGUAUUGCACCAGGCAUGUTT against Ssh3", "z-score": "inactive: 0.0779"},
      {"sequence": "GCCCAAGGAGGCAUUGAUATT against Fbxo8", "z-score": "inactive: -0.653"},
      {"sequence": "GGCUGGUUUACAACAGAACTT against Pla2g15", "z-score": "inactive: -0.647"},
      {"sequence": "CGCAAGCUUAUUUCAAUGGTT against Cd86", "z-score": "inactive: 1.01"},
      {"sequence": "CCCUACUCGAAUUUAUAGCTT against Tmem54", "z-score": "inactive: -0.553"},
      {"sequence": "GGAAAGUGUUUUGUCAAUGTT against Olfr1305", "z-score": "inactive: 0.698"},
      {"sequence": "GCAUGCAGAGUUACUAUUGTT against Tas2r143", "z-score": "inactive: -0.316"},
      {"sequence": "GAACACAAAUCUAGUAGACTT against Olfr1109", "z-score": "inactive: 0.278"},
      {"sequence": "GGUCCUUCCAUAGUGACGCTT against Igfbp7", "z-score": "inactive: -1.28"},
      {"sequence": "GGACUACAACUACCUUAACTT against Cdh3", "z-score": "inactive: 0.125"},
      {"sequence": "GGGUGUGAGUGAUUAUGAATT against Prpf31", "z-score": "inactive: -1.12"},
      {"sequence": "CGGAGUUGACCUGACAUCCTT against Atp6v1c2", "z-score": "inactive: -0.77"},
      {"sequence": "CGGUGAAGACUAUCAUGGUTT against Tln1", "z-score": "inactive: -0.791"},
      {"sequence": "GCUCAUGUCUUAUUUGGAUTT against Klhl15", "z-score": "inactive: -0.393"},
      {"sequence": "GGAAAAACUACCAAGAGGATT against Pigp", "z-score": "active: 2.32"},
      {"sequence": "GCCUAGAAGAAAAACUAAATT against Eef2kmt", "z-score": "inactive: -0.668"},
      {"sequence": "CCCGCUAUUACGUUUUUCUTT against Mtarc2", "z-score": "inactive: -0.498"},
      {"sequence": "GGCAACUUUGAGUUUGGUATT against Podn", "z-score": "inactive: 0.748"},
      {"sequence": "CCAUCCCAUAUGUUCCGGUTT against Ptms", "z-score": "inactive: 0.94"},
      {"sequence": "GCAGACUUACAUCCGGAAGTT against Mybphl", "z-score": "inactive: -0.119"},
      {"sequence": "GGACCUCUUGCUAAUCCAATT against Ptprk", "z-score": "inactive: 1.03"},
      {"sequence": "CCUCAGUCCUCUGUUAAAATT against Olfr355", "z-score": "inactive: -0.262"},
      {"sequence": "GGGUUGUGAAGAGAUUAAATT against Il1rl2", "z-score": "inactive: 0.582"},
      {"sequence": "GCCAAGGUUAUCAUGAAUGTT against F13a1", "z-score": "inactive: -0.141"},
      {"sequence": "GGAUGUUUCAGACAAGCUCTT against Olfr156", "z-score": "inactive: -0.578"},
      {"sequence": "CGAGAACAGUUUGUACAAGTT against Serpinh1", "z-score": "inactive: 0.0782"}
    ]}
  ]
}
